Laboratory results from PubChem BioAssay AID330 (DTP/NCI, 2004).
The list is a part of this screen's results and no random one: it gathers tests that were run many times, whatever their T/C, doses with no T/C, and many T/C values between a quarter and a half above the control. Other doses and runs of a compound stand elsewhere. T/C gives the treated animals as a percentage of the vehicle group. Some entries give survivors of the animals treated and no T/C: the source holds a T/C of zero for them, seemingly a mark for toxic or unscored doses. Some doses without a T/C left all or most animals alive at the check, yet need not have been tolerated: survival well below the control is almost never listed, so the zero probably covers shortened survival too. Survivors were counted at the toxicity check, usually on the fifth day, unless a day is given; later deaths do not show. Schedules are NCI's codes, taken here to give the interval after Q, in days (D) or hours (H), and the number of doses after X. Some entries hold several experiments; the results are listed from low to high. Some molecules as drawn cover several salts, stereoisomers or complexes of the source; a dose is that of the sample tested. Brackets with × say how often a value occurs here. Where survival is the endpoint, the PubChem record calls one and a half times the control and up active, and a quarter to a half above the control has no call in these data; cut-offs in other NCI protocols can differ. Some T/C values carry the count of animals alive at the toxicity check (mostly the fifth day); without a count, all were alive then.

Tested on: P388 leukemia ip, CD2F1 mice, survival T/C
Assay: NCI In Vivo Anticancer Drug Screen. Data for tumor model P388 Leukemia (intraperitoneal) in CD2F1 (CDF1) mice
Settings: T/C endpoint: median survival time, higher T/C = longer survival
[1] = dose: 100.0 mg/kg/injection, schedule: Q01DX005 (ip), vehicle: Klucel (hydroxypropylcellulose) (HPC)
[2] = dose: 200.0 mg/kg/injection, schedule: Q01DX005 (ip), vehicle: Klucel (hydroxypropylcellulose) (HPC)
[3] = dose: 200.0 mg/kg/injection, schedule: Q04DX002 (ip), vehicle: saline with Tween-80
[4] = dose: 200.0 mg/kg/injection, schedule: Q01DX009 (ip), vehicle: saline with Tween-80
[5] = dose: 400.0 mg/kg/injection, schedule: Q01DX009 (ip), vehicle: saline with Tween-80
[6] = dose: 25.0 mg/kg/injection, schedule: Q01DX005 (ip), vehicle: saline with Tween-80
[7] = dose: 50.0 mg/kg/injection, schedule: Q01DX005 (ip), vehicle: saline with Tween-80
[8] = dose: 200.0 mg/kg/injection, schedule: Q01DX005 (ip), vehicle: saline with Tween-80
[9] = dose: 25.0 mg/kg/injection, schedule: Q01DX009 (ip), vehicle: saline with Tween-80
[10] = dose: 12.5 mg/kg/injection, schedule: Q04DX003 (ip), vehicle: saline
[11] = dose: 25.0 mg/kg/injection, schedule: Q04DX003 (ip), vehicle: saline
[12] = dose: 50.0 mg/kg/injection, schedule: Q01DX009 (ip), vehicle: saline
[13] = dose: 100.0 mg/kg/injection, schedule: Q01DX009 (ip), vehicle: saline
[14] = dose: 200.0 mg/kg/injection, schedule: Q01DX009 (ip), vehicle: saline
[15] = dose: 400.0 mg/kg/injection, schedule: Q01DX005 (ip), vehicle: saline with Tween-80
[16] = dose: 240.0 mg/kg/injection, schedule: Q01DX005 (ip), vehicle: Klucel (hydroxypropylcellulose) (HPC)
[17] = dose: 100.0 mg/kg/injection, schedule: Q01DX009 (ip), vehicle: saline with Tween-80
[18] = dose: 25.0 mg/kg/injection, schedule: Q01DX009 (ip), vehicle: saline
[19] = dose: 240.0 mg/kg/injection, schedule: Q01DX005 (ip), vehicle: saline with Tween-80
[20] = dose: 120.0 mg/kg/injection, schedule: Q01DX005 (ip), vehicle: saline with Tween-80

C[N+](C)(C)NP(=O)(N[N+](C)(C)C)Oc1ccccc1
T/C (dose: 240.0 mg/kg/injection, schedule: Q01DX005 (ip), vehicle: saline): 128 % of control

Cc1ccccc1C1N=C2Oc3ccccc3C=C2C(=O)N1 (stereo not drawn)
survivor count (dose: 25.0 mg/kg/injection, schedule: Q01DX005 (ip), vehicle: Klucel (hydroxypropylcellulose) (HPC)): 2 of 6
T/C (dose: 50.0 mg/kg/injection, schedule: Q01DX005 (ip), vehicle: Klucel (hydroxypropylcellulose) (HPC), evaluated on day 20): 94 and 100 % of control
T/C (dose: 50.0 mg/kg/injection, schedule: Q01DX005 (ip), vehicle: Klucel (hydroxypropylcellulose) (HPC), evaluated on day 30): 97 % of control
survivor count (dose: 50.0 mg/kg/injection, schedule: Q01DX005 (ip), vehicle: Klucel (hydroxypropylcellulose) (HPC)): 0 of 6
T/C (dose: 100.0 mg/kg/injection, schedule: Q01DX005 (ip), vehicle: Klucel (hydroxypropylcellulose) (HPC), evaluated on day 20): 102 and 122 % of control
T/C (dose: 100.0 mg/kg/injection, schedule: Q01DX005 (ip), vehicle: Klucel (hydroxypropylcellulose) (HPC), evaluated on day 30): 129 % of control
survivor count [1]: 0 of 6
survivor count [2]: 2 of 6

CN=C(N)NN=C(c1cccc(F)c1)c1cccc(F)c1
survivor count [3]: 1 of 6
survivor count (dose: 400.0 mg/kg/injection, schedule: Q04DX002 (ip), vehicle: saline with Tween-80): 1 of 6

NC(N)=N/N=C1C=C/C(=N/N=C(N)N)C/1
survivor count (dose: 400.0 mg/kg/injection, schedule: Q01DX001 (ip), vehicle: saline): 0 of 6

COC12c3c(C)cc(O)c4c(=O)occ(c34)C(=O)C1C13COC(=O)c4c(O)cc(C)c(c41)C(=O)C2C3OC(C)=O (stereo not drawn)
survivor count [4]: 2 of 3, 3 of 4, 4 of 5
survivor count [5]: 0 of 3

N=C(N)N=Nc1cc(O)c(NN=C(N)N)cc1O
survivor count (dose: 12.5 mg/kg/injection, schedule: Q01DX005 (ip), vehicle: saline with Tween-80): 3 of 6
survivor count [6]: 0 of 6
survivor count [7]: 0 of 6
survivor count (dose: 100.0 mg/kg/injection, schedule: Q01DX005 (ip), vehicle: saline with Tween-80): 0 of 6
survivor count [8]: 0 of 6

CCCC(=O)N[C@H]1CCc2cc(OC)c(OC)c(OC)c2-c2ccc(SC)c(=O)cc21
T/C (dose: 0.19 mg/kg/injection, schedule: Q01DX009 (ip), vehicle: water): 132 % of control
T/C (dose: 0.38 mg/kg/injection, schedule: Q01DX009 (ip), vehicle: water): 138 % of control
survivor count (dose: 1.5 mg/kg/injection, schedule: Q01DX009 (ip), vehicle: distilled water + Tween-80): 6 of 6
survivor count (dose: 3.0 mg/kg/injection, schedule: Q01DX009 (ip), vehicle: distilled water + Tween-80): 0 of 6
survivor count (dose: 3.0 mg/kg/injection, schedule: Q01DX009 (ip), vehicle: water): 4 of 6

O=C1C(=O)c2ccccc2C(O)=C1CCCc1ccc(C2CCCCC2)cc1
survivor count [9]: 6 of 6

C[As](C)SCCO
survivor count (dose: 100.0 mg/kg/injection, schedule: Q04DX002 (ip), vehicle: saline with Tween-80): 5 of 5
survivor count [3]: 0 of 5

COc1cc2c(cc1OC)[C@H]1[C@H](CO)c3ccc4c(c3CN1CC2)OCO4
survivor count [1]: 0 of 5
survivor count [2]: 0 of 5

C[C@]12CC[C@H]3[C@@H](CCC4=C[C@@H](OC5OCC(OC6OC(CO)C(O)C(O)C6O)C(O)C5O)CC[C@@]43C=O)[C@@]1(O)CCC2C1=CC(=O)OC1 (stereo partly drawn)
T/C (dose: 0.25 mg/kg/injection, schedule: Q01DX009 (ip), vehicle: saline with Tween-80): 135 % of control

CCCCCCCCCCCCCCCCCCNCCC#N
survivor count (dose: 25.0 mg/kg/injection, schedule: Q01DX009 (ip), vehicle: Klucel (hydroxypropylcellulose) (HPC)): 6 of 6
survivor count (dose: 200.0 mg/kg/injection, schedule: Q01DX009 (ip), vehicle: Klucel (hydroxypropylcellulose) (HPC)): 6 of 6

CCCCCCCCC(O)C#CC(O)CCCCCCCC (stereo not drawn)
survivor count [8]: 5 of 6

CC[CH2][Sn]([Br])([Br])[CH2]CC
T/C (dose: 6.25 mg/kg/injection, schedule: Q04DX003 (ip), vehicle: saline): 131 % of control
T/C [10]: 127 % of control [4 of 6 alive]
survivor count [10]: 3 of 6
T/C [11]: 142 % of control [4 of 6 alive]
survivor count [11]: 0 of 6
survivor count (dose: 100.0 mg/kg/injection, schedule: Q04DX003 (ip), vehicle: saline): 0 of 6
survivor count (dose: 200.0 mg/kg/injection, schedule: Q04DX003 (ip), vehicle: saline): 0 of 6
survivor count (dose: 400.0 mg/kg/injection, schedule: Q04DX003 (ip), vehicle: saline): 0 of 6

CC1=CSC2=NCCCCN12
survivor count [12]: 6 of 6
survivor count [13]: 6 of 6
survivor count [14]: 0 of 6

O=C(Nc1ccccc1)c1c(O)[nH]c(=O)[nH]c1=O
T/C [6]: 134 % of control
T/C [7]: 126 and 134 % of control
survivor count [8]: 6 of 6
T/C [15]: 133 % of control [5 of 6 alive]
survivor count [15]: 4 of 6

CN(C)CN1C(=O)S/C(=C2\C(=O)N(CN(C)C)c3ccccc32)C1=O
T/C (dose: 120.0 mg/kg/injection, schedule: Q01DX005 (ip), vehicle: Klucel (hydroxypropylcellulose) (HPC)): 125 % of control
T/C [16]: 126 % of control

Clc1cc(-c2csc(Cl)c2)cs1
survivor count [17]: 6 of 6

O=C(O)CC1CCC1CC(=O)O (stereo not drawn)
survivor count [4]: 5 of 6

CC1=CC(=O)C(O)C2(C)C1CC1OC(=O)CC3C(C)C(O)C4(O)OCC13C42 (stereo not drawn)
T/C (dose: 40.0 mg/kg/injection, schedule: Q01DX009 (ip), vehicle: Klucel (hydroxypropylcellulose) (HPC)): 145 % of control

CC(CC(C)C)=NC(C)CC(C)C (stereo not drawn)
survivor count (dose: 200.0 mg/kg/injection, schedule: Q01DX005 (ip), vehicle: saline): 3 of 6

Cc1ccc(C(=O)C(CN(C)C)CN(C)C)cc1
T/C (dose: 6.25 mg/kg/injection, schedule: Q01DX009 (ip), vehicle: saline): 126 % of control
T/C (dose: 12.5 mg/kg/injection, schedule: Q01DX009 (ip), vehicle: saline): 128, 132, 135 % of control
T/C [18]: 136 and 139 % of control
survivor count [18]: 0 of 6 and 1 of 6
survivor count [12]: 0 of 6 and 1 of 6
survivor count [13]: 0 of 6 (2×)
survivor count [14]: 0 of 6 (2×)

O=C(Nc1ccc(Cl)cc1)Nc1nnc2nc(C(C(=O)c3ccc(O)cc3O)c3nc4nnc(NC(=O)Nc5ccc(Cl)cc5)n4[nH]c3=O)c(=O)[nH]n12
survivor count [19]: 6 of 6

COC1C(OC(=O)c2ccc(C)[nH]2)C(O)C(Oc2ccc3c(O)c(NC(=O)c4c[nH]c(C(=O)Nc5c(O)c6ccc(OC7OC(C)(C)C(OC)C(OC(=O)c8ccc(C)[nH]8)C7O)c(C)c6oc5=O)c4C)c(=O)oc3c2C)OC1(C)C (stereo not drawn)
T/C [9]: 140 % of control
survivor count [17]: 3 of 6
survivor count [4]: 0 of 6
survivor count [5]: 0 of 6

Cc1ccc(C(N)=Nc2ccccc2)cc1
survivor count [20]: 0 of 6
survivor count [19]: 0 of 6

c1ccc2c(SCCCCCCSc3c4ccccc4nc4ccccc34)c3ccccc3nc2c1
survivor count [16]: 6 of 6

O=C(NC(=O)c1c(F)cccc1F)Nc1cccc(Oc2ncc(Cl)cn2)c1
survivor count [20]: 6 of 6
survivor count [19]: 6 of 6

CCOC(CNN)OCC
survivor count (dose: 400.0 mg/kg/injection, schedule: Q01DX009 (ip), vehicle: saline): 0 of 6
